The values below are quoted from earlier work in US11529304B2, “Method for dyeing keratin material by means of a dyeing agent and an acidic posttreatment agent” (Henkel AG & Co. KGaA, priority 2018, dated 2022).

For the data set the following is noted: 25° C.

Turning to `CCN(Cc1cccc(S(=O)(=O)[O-])c1)c1ccc(C(=C2C=CC(=[N+](CC)Cc3cccc(S(=O)(=O)[O-])c3)C=C2)c2ccccc2S(=O)(=O)[O-])cc1.[Na+].[Na+]` [Acid Blue 9], the solubility in water entry was “more than 20 % by weight”.
